Data as given in paper PMC7955098.
No constants are given. Whether binding was seen depends on the method and setting. In cells and extracts the contact can be indirect. Some results given as binding are weak or reduced against the parent protein; the word gives no strength.

Sequences of proteins named here, by UniProt entry; tags and fusion partners are left off.
UniProt O14686: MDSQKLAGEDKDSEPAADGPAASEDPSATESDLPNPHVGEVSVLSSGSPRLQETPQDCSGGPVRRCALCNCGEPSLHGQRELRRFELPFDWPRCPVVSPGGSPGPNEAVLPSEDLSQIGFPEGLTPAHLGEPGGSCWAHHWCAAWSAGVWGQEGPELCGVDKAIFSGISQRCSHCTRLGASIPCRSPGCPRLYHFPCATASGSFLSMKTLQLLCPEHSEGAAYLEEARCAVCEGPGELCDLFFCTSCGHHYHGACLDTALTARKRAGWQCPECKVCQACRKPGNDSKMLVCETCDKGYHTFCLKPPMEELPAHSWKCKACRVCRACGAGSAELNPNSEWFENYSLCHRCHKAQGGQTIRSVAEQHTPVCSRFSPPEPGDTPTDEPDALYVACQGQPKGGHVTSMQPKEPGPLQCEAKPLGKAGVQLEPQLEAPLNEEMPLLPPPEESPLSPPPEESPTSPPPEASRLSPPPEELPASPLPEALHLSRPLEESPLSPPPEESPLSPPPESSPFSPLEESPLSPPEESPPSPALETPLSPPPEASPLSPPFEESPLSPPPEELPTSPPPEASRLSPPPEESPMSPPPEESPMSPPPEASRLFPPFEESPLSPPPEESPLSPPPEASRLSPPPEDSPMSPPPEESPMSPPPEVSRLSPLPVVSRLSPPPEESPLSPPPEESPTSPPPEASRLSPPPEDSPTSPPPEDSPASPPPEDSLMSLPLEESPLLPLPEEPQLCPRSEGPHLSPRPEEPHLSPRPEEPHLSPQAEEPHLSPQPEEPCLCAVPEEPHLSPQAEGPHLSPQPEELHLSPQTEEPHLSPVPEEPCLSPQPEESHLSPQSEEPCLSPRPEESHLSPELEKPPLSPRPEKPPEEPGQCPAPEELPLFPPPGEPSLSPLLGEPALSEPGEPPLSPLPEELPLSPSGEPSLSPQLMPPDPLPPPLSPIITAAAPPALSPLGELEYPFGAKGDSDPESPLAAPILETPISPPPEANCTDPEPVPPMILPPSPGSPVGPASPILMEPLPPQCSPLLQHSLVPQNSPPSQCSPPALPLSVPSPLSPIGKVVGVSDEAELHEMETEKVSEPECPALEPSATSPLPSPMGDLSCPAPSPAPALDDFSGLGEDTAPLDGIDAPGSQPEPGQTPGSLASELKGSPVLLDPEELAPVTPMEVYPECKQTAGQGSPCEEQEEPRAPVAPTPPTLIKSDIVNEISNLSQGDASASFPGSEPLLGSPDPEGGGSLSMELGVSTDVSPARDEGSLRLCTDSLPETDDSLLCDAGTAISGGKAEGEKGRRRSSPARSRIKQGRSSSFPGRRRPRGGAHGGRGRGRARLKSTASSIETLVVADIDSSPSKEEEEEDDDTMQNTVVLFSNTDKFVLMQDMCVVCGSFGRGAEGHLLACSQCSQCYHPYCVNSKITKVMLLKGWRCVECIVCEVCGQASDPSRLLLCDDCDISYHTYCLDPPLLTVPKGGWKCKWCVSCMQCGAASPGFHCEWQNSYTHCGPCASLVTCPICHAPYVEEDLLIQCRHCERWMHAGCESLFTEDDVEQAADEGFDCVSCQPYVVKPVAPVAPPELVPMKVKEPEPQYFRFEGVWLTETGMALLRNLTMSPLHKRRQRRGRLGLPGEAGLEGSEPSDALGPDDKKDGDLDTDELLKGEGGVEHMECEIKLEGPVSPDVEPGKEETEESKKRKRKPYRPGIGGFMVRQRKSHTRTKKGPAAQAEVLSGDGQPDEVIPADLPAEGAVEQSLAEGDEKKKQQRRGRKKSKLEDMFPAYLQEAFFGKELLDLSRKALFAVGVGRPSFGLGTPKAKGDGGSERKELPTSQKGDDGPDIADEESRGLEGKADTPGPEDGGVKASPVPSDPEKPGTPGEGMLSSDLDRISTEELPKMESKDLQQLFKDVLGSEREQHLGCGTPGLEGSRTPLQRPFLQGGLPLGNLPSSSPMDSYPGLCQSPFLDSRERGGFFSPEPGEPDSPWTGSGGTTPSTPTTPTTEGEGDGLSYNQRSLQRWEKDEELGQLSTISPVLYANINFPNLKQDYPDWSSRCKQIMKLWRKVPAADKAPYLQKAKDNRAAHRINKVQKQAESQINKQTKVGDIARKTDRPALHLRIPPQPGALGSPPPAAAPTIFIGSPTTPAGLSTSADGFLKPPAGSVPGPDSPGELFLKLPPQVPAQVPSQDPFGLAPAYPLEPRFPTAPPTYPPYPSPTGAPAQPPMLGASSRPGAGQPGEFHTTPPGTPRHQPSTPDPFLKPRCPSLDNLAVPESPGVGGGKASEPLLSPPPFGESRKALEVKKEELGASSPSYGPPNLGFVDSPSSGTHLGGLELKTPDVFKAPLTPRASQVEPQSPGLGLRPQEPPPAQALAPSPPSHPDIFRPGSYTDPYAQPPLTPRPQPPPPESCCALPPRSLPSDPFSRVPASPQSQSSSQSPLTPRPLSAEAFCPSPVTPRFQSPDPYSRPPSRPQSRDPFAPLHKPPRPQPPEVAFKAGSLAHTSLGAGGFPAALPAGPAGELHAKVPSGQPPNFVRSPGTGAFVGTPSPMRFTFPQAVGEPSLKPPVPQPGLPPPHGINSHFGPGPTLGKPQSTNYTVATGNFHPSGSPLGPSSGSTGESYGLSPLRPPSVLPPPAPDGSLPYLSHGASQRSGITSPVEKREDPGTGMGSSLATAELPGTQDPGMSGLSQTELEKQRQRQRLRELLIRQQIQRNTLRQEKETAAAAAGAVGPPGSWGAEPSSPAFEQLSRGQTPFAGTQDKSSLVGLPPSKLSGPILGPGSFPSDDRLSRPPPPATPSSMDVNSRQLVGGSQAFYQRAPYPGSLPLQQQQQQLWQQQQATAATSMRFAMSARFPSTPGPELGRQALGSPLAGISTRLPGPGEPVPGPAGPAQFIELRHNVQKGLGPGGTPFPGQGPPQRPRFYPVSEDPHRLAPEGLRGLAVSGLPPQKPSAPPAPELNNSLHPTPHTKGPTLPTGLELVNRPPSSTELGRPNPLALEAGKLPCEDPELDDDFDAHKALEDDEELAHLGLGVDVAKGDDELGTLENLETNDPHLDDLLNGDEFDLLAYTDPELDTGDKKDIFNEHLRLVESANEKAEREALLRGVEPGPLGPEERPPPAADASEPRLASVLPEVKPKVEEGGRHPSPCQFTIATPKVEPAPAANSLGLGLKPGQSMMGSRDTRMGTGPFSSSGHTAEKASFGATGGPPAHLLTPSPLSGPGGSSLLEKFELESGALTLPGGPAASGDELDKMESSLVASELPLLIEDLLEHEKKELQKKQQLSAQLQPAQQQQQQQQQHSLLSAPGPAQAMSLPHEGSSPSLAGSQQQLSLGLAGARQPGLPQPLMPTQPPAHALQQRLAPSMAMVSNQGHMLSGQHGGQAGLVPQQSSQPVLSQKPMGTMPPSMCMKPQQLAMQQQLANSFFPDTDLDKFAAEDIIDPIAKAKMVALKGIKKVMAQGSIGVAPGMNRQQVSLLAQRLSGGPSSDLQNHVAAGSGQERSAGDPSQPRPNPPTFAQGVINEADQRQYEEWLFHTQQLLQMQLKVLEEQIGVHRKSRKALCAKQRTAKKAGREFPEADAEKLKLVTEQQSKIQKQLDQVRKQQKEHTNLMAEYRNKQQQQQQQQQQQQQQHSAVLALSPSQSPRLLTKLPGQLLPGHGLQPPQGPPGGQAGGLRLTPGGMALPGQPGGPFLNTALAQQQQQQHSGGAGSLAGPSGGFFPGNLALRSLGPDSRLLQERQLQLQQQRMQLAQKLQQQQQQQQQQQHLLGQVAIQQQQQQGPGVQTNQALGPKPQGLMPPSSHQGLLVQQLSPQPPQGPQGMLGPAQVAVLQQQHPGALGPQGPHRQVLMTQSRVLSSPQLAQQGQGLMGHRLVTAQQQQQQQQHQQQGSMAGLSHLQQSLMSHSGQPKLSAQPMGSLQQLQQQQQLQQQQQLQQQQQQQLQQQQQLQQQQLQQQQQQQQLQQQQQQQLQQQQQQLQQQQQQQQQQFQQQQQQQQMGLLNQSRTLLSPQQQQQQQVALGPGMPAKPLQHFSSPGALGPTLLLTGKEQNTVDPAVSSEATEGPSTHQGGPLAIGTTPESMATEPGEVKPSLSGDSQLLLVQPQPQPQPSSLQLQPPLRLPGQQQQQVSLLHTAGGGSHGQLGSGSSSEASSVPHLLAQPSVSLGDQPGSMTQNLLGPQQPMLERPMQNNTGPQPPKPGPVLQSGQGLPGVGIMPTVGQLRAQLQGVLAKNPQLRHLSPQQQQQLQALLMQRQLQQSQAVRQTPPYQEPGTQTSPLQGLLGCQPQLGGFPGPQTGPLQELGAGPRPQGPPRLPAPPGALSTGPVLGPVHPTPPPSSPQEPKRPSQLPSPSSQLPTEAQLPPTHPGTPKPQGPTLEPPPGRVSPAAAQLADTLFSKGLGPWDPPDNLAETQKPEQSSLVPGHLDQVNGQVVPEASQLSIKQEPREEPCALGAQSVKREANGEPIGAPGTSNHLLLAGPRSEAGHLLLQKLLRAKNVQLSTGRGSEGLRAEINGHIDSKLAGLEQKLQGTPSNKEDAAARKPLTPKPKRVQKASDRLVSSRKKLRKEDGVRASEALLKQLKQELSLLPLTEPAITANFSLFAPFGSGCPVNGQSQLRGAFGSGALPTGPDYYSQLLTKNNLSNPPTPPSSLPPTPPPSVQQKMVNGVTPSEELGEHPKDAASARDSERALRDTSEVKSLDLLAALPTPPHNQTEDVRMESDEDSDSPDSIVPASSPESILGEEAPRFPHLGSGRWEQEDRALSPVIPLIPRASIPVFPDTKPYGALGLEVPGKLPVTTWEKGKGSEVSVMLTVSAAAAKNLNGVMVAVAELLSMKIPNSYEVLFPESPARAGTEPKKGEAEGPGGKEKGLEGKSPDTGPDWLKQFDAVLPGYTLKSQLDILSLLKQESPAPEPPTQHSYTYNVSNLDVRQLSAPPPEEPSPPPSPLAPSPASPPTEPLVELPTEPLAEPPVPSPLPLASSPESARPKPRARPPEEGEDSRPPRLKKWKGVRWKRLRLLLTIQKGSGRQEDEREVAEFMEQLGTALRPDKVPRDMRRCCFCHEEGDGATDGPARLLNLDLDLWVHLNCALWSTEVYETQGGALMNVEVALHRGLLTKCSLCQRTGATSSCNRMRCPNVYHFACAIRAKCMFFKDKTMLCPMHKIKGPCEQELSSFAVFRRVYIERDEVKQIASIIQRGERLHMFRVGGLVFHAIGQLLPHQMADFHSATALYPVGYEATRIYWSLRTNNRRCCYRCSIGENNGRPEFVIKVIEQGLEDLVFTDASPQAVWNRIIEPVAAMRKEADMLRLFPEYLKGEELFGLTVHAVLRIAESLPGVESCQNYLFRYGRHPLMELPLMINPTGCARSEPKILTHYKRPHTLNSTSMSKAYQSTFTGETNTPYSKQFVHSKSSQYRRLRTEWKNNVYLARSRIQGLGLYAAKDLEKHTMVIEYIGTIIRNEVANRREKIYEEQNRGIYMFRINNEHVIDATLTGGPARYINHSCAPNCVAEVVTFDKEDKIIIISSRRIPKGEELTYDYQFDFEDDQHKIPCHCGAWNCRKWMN
UniProt Q12824: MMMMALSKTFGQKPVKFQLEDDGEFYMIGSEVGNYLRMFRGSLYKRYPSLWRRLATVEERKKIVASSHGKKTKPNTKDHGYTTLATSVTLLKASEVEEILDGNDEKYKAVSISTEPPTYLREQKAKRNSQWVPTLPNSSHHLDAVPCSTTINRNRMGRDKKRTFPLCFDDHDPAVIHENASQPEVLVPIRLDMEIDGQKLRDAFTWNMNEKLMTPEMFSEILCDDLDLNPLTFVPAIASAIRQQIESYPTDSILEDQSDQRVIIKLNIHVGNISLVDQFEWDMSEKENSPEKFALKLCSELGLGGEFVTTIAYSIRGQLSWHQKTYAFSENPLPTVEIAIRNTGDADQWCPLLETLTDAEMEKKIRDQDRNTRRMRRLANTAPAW

B1: Menin, MLL1 complex subunit, human, endogenous (protein, UniProt O00255 1-610)
chain: MGLKAAQKTLFPLRSIDDVVRLFAAELGREEPDLVLLSLVLGFVEHFLAVNRVIPTNVPELTFQPSPAPDPPGGLTYFPVADLSIIAALYARFTAQIRGAVDLSLYPREGGVSSRELVKKVSDVIWNSLSRSYFKDRAHIQSLFSFITGTKLDSSGVAFAVVGACQALGLRDVHLALSEDHAWVVFGPNGEQTAEVTWHGKGNEDRRGQTVNAGVAERSWLYLKGSYMRCDRKMEVAFMVCAINPSIDLHTDSLELLQLQQKLLWLLYDLGHLERYPMALGNLADLEELEPTPGRPDPLTLYHKGIASAKTYYRDEHIYPYMYLAGYHCRNRNVREALQAWADTATVIQDYNYCREDEEIYKEFFEVANDVIPNLLKEAASLLEAGEERPGEQSQGTQSQGSALQDPECFAHLLRFYDGICKWEEGSPTPVLHVGWATFLVQSLGRFEGQVRQKVRIVSREAEAAEAEEPWGEEAREGRRRGPRRESKPEEPPPPKKPALDKGLGTGQGAVSGPPRKPPGTVAGTARGPEGGSTAQVPAPTASPPPEGPVLTFQSEKMKGMKELLVATKINSSAIKLQLTAQSQVQMKKQKVSTPSDYTLSFLKRQRKGL
B2: Menin, MLL1 complex subunit, mouse, endogenous (protein, UniProt O88559 1-611)
chain: MGLKAAQKTLFPLRSIDDVVRLFAAELGREEPDLVLLSLVLGFVEHFLAVNRVIPTNVPELTFQPSPAPDPPGGLTYFPVADLSIIAALYARFTAQIRGAVDLSLYPREGGVSSRELVKKVSDVIWNSLSRSYFKDRAHIQSLFSFITGTKLDSSGVAFAVVGACQALGLRDVHLALSEDHAWVVFGPNGEQTAEVTWHGKGNEDRRGQTVNAGVAERSWLYLKGSYMRCDRKMEVAFMVCAINPSIDLHTDSLELLQLQQKLLWLLYDLGHLERYPMALGNLADLEELEPTPGRPDPLTLYHKGIASAKTYYQDEHIYPYMYLAGYHCRNRNVREALQAWADTATVIQDYNYCREDEEIYKEFFEVANDVIPNLLKEAASLLETGEERTGEQAQGTQGQGSALQDPECFAHLLRFYDGICKWEEGSPTPVLHVGWATFLVQSLGRFEGQVRQKVHIVSREAEAAEAEEPWGDEAREGRRRGPRRESKPEEPPPPKKPALDKGPGSGQSAGSGPPRKTSGTVPGTTRGGQEVGNAAQAPAPAASPPPEGPVLTFQSEKMKGMKELLVATKINSSAIKLQLTAQSQVQMKKQKVSTPSDYTLSFLKRQRKGL

Tests used:
[1] = biological target: MLL4 (KMT2D), mouse, endogenous (mouse (endogenous in mouse ES cells and mouse preadipocytes)) (UniProt Q6PDK2); assay: co-IP; nuclear extract of mouse preadipocytes at D2 of adipogenesis diluted in IP buffer (50 mM Tris-HCl pH 7.5, 1 mM EDTA, 150 mM NaCl, 1% Triton X-100), anti-MLL4 or anti-UTX antibody overnight at 4 °C, Dynabeads Protein A; Western blot
[2] = biological target: UTX, mouse, endogenous (mouse (endogenous in mouse ES cells and mouse preadipocytes)) (UniProt O70546); assay: as above
[3] = biological target: MLL4 (KMT2D), human, endogenous (human (endogenous in HEK293T)) (UniProt O14686); assay: co-IP; HEK293T nuclear extract diluted in IP buffer (50 mM Tris-HCl pH 7.5, 1 mM EDTA, 150 mM NaCl, 1% Triton X-100), anti-MLL4 or anti-UTX antibody overnight at 4 °C, Dynabeads Protein A; Western blot
[4] = biological target: UTX, human, endogenous (human (endogenous in HEK293T)) (UniProt O15550); assay: as above

Row | Molecule | binding [1] | binding [2] | binding [3] | binding [4]
1 | SMARCA4 (BRG1), mouse, endogenous (from UniProt Q3TKT4 1-1613) | binds | binds |  | 
2 | SMARCA4 (BRG1), human, endogenous (from UniProt P51532 1-1647) |  |  | binds | binds
3 | SMARCB1 (SNF5, INI1, or BAF47), human, endogenous (from UniProt Q12824 1-385) |  |  | binds | binds
4 | B1 |  |  | no binding | no binding
5 | B2 | no binding | no binding |  | 
